Data from US7700636B2, “Thiadiazole compounds and methods of use” (Amgen Inc., priority 2004, dated 2010).
Read-outs that look alike come from different tables or passages of the source. Some of these results come from one statement about several compounds together.

Amino acid sequences for entries named in this document (tags omitted). Residues count along the entry.
UniProt P31749, 118-480 limits assumed: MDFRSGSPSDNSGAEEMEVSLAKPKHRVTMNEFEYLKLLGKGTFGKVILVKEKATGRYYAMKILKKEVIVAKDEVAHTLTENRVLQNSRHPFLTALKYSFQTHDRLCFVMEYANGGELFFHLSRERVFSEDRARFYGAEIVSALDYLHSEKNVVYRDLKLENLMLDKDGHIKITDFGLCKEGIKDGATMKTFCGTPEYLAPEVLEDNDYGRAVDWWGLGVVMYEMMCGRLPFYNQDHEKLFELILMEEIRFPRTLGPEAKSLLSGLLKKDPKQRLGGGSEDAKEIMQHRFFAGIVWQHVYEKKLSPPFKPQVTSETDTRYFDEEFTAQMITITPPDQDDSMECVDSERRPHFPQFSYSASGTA

What was measured:
PKBα = target: T1, PKBα (Homo sapiens, UniProt P31749); test: PKB kinase assay (P33-labeled ATP, peptide substrate, filter plate); format: biochemical; details: full length PKBα and PKBα kinase domain with pleckstrin domain (amino acids 1-117) deleted
T1 construct: fused on or other part: Probably a His tag on the vendor's proteins

PKB = PKB activity in cells: phosphorylation of PKB substrates FKHRL1, GSK3a/b and Tuberin by immunoassay in MDA-MB-468; format: cell-based

Row | Compound | IC50 (PKBα) | IC50 (PKB; PTEN null human breast tumor cell line MDA-MB-468; phospho-FKHRL1, GSK3a/b, Tuberin; read-out: PKB kinase activity IC50 in cells) | IC50 (PKB; read-out: PKB kinase activity IC50 in cells; PTEN null human breast tumor cell line MDA-MB-468; phospho-FKHRL1, GSK3a/b, Tuberin)
1 | (R)-1-[5-(3-Methyl-1H-indazol-5-yl)-[1,3,4]thiadiazol-2-ylcarbamoyl]-2-phenyl-ethyl-ammonium chloride [Example 8] | < 10 µM | < 10 µM | –
2 | Nc1nnc(-c2ccc3[nH]nc(-c4ccccc4)c3c2)s1 [Example 121, 5-(3-phenyl-1H-indazol-5-yl)-1,3,4-thiadiazol-2-amine] | – | – | < 10 µM
